Test results: article PMC10696399

Biological target: T1, FLAG-tagged SpvB (S. Typhimurium strain SL1344) (UniProt P21454)
T1 sequence: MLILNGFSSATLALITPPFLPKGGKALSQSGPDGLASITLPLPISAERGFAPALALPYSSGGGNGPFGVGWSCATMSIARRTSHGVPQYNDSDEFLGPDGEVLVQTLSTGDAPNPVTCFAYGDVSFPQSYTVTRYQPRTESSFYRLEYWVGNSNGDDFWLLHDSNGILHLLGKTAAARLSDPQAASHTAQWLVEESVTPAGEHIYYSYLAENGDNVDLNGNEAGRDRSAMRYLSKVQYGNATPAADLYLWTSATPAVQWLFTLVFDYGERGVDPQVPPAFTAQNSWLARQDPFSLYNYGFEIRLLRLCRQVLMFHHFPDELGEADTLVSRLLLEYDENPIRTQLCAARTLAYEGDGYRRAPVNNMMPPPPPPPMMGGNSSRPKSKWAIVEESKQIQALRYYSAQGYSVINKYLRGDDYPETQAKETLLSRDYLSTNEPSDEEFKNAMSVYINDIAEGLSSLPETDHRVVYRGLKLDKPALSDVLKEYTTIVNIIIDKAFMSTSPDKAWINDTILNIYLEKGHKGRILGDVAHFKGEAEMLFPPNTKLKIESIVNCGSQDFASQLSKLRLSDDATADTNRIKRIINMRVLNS
Assay: co-IP

## AP-1γ (endogenous) (human (endogenous in HEK293T))
  binding: binds

No constants are given. Whether binding was seen depends on the method and setting. Binding seen in cells or lysates may run through a third protein. Binding calls can cover weak binding; strength is not graded here. Sequences can lack the tags named with a protein.
